The source of these data is article PMC7819943, “Rice protein-binding microarrays: a tool to detect cis-acting elements near promoter regions in rice”.

The chains behind the UniProt entries cited, without tags or fusion partners.
UniProt Q0JBA9, entry or part of it: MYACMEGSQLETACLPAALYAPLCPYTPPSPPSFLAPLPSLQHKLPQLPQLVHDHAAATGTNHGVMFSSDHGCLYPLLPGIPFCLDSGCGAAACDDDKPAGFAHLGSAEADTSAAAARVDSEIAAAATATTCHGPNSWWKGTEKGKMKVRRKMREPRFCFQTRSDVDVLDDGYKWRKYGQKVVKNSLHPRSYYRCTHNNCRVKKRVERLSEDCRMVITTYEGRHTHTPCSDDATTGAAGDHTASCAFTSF

This is one part of the list.

This assay has as its target OsWRKY34 (Oryza sativa, UniProt Q0JBA9 1-250). As to the kind of experiment: protein-binding microarray (RPBM); PBS, 2% BSA, 51.3 ng/ul salmon testes DNA, 50 uM zinc acetate, 200 nM TF, 25 C, 1 h; high values mean tight binding. The following applies: protein: recombinant; tags: N-terminal polyhistidine and DsRed monomer fusion (pET32a); label: CyDye5-dUTP incorporated in the synthesized complementary strand; 3' TTTTT single-stranded linker to array surface; dsDNA, one strand shown. The method, boiled down:
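A custom Agilent array was converted to double-stranded form by primer extension with Cy5-dUTP and blocked with 2% BSA. Protein at 200 nM in PBS with 2% BSA, salmon testes DNA and 50 µM zinc acetate was applied for 1 h at 25 °C, followed by washing. The proteins were polyhistidine–DsRed N-terminal fusions of transcription factors, expressed in E. coli BL21-CodonPlus and Ni–NTA-purified. The binding signal is per-feature fluorescence intensity (arbitrary units) from an Axon 4000B scanner.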
Turning to “TCCACCAATGGCCCTCTTGCCCATTGTTTTCTTCTTGTCCCGGAGTCACCTAGTGCAG”, the binding signal is 12900 fluorescence intensity (a.u.). To “ATCTGGACTTTCTCTAGTGCTCAACTGCTGACTCTGTTGACGGAGTCACCTAGTGCAG” belongs 9300 fluorescence intensity (a.u.); to “TTTTAGTTTGCATTCATCTTCCTTTCCGCGAACTCTCACTCGGAGTCACCTAGTGCAG”, 9860 fluorescence intensity (a.u.); to “CACATTACACGTTACTAGTAACATGGTGACATACTTTTTCCGGAGTCACCTAGTGCAG”, 8950 fluorescence intensity (a.u.). To “AATGGTCTTAGCAGCTAATTACTCTCTACACTAATATGACCGGAGTCACCTAGTGCAG” belongs 8980 fluorescence intensity (a.u.). Turning to “CCCCAGTTTTGCCACCATGCGGTTCATTGTATTGCTACATCGGAGTCACCTAGTGCAG”, the binding signal is 8780 fluorescence intensity (a.u.). The result for “CCCCTCAGTACTCCTGCCTCTGTCCCCATGGCATGTTACACGGAGTCACCTAGTGCAG” reads 10500 fluorescence intensity (a.u.); that for “TTTCATCCAGCTAGCTACTGTATTACCTTAATTTCCTACTCGGAGTCACCTAGTGCAG”, 10500 fluorescence intensity (a.u.); that for “CCCTCCAGTTTATTGTTTTGCCTATCGATCTCTTGTTGTTCGGAGTCACCTAGTGCAG”, 13900 fluorescence intensity (a.u.). To “TTTCATACCTTAATTCTGCATTCCTGGCTAAATTATCTTCCGGAGTCACCTAGTGCAG” belongs 8590 fluorescence intensity (a.u.); to “CTCTAGGAGACACTCGCCACACAGTCTCTAAGCTGTCCCTCGGAGTCACCTAGTGCAG”, 8140 fluorescence intensity (a.u.); to “ACCCCATTTTTTTTGAAAATTCTCGAATTTTATTTTTTTTCGGAGTCACCTAGTGCAG”, 8750 fluorescence intensity (a.u.).

With “CGATTTCCACTTTCGTTTGCTTTCGGGGTTCCAATTTGAGCGGAGTCACCTAGTGCAG”, the binding signal is 11200 fluorescence intensity (a.u.). To “TGTTTGTAATAGATTGGTACTTTTGTCGGCCTTGTGAATTCGGAGTCACCTAGTGCAG” belongs 8790 fluorescence intensity (a.u.); to “GCATCGCCCAGCTTTTTTTCATTTTTCTCTGTTTGTTTCGCGGAGTCACCTAGTGCAG”, 9360 fluorescence intensity (a.u.); to “AATCTCTCTGTTACTCTCCTACGCGTTTGCTTCAAGCTTTCGGAGTCACCTAGTGCAG”, 15600 fluorescence intensity (a.u.). To “ACTAAGTGTGGCTCGTTTTCAGTATTCCTTTCGTTGAATACGGAGTCACCTAGTGCAG” belongs 9360 fluorescence intensity (a.u.); to “CTCTCTCTGCCTTCCTCCTTGACCGATCGCTCCCTTCTGACGGAGTCACCTAGTGCAG”, 8160 fluorescence intensity (a.u.). To “CACACACTTCCTCATTCTCGGGGACACGGCCGGTCGCACACGGAGTCACCTAGTGCAG” belongs 8560 fluorescence intensity (a.u.).

As to “GAGCGGTCCACATATATATTTTGATCATGCATGGTGCATTCGGAGTCACCTAGTGCAG”, the binding signal is 8130 fluorescence intensity (a.u.). The result for “ATCTACACAGCATCGCCGCCGCCGCCGCATCCCCTTTGCACGGAGTCACCTAGTGCAG” reads 9030 fluorescence intensity (a.u.). The result for “GAACTGATAAATGATTCGAAACATTTAATAACCAAAGAAACGGAGTCACCTAGTGCAG” reads 8030 fluorescence intensity (a.u.); that for “TCCCACCACCTGCGCCACGCGCGCGCGCGTCCTTCGGGCACGGAGTCACCTAGTGCAG”, 9000 fluorescence intensity (a.u.). The result for “GTCTTCTTTTGAGGTGTGATTATGTTTGAAACTTTTTTTTCGGAGTCACCTAGTGCAG” reads 9080 fluorescence intensity (a.u.); that for “GTTGCCTTGGGTGGGCCGAATTCGCTAACTGGGTATAGGTCGGAGTCACCTAGTGCAG”, 11100 fluorescence intensity (a.u.).

Turning to “CCAATTTTTTTTTCTCCTTTTGCTTTTTTTCATCAAGAACCGGAGTCACCTAGTGCAG”, the binding signal is 8740 fluorescence intensity (a.u.). To “CCATCATATGATCCTATCCGGCGGCCACACTGCAAATCTGCGGAGTCACCTAGTGCAG” belongs 8690 fluorescence intensity (a.u.); to “TTTTTCTCTATAAATTTAGTCAAACATATATAACTTTGACCGGAGTCACCTAGTGCAG”, 8080 fluorescence intensity (a.u.). To “CTGGGGAGGGCGACGGCGCAGTGCGGGGTGGACGGGAGCGCGGAGTCACCTAGTGCAG” belongs 8270 fluorescence intensity (a.u.); to “TTGTGTGGGTGATGTGAAGATGCTGGTGAAAGCCTTGCCGCGGAGTCACCTAGTGCAG”, 8780 fluorescence intensity (a.u.). To “ATTTAAGGTTTTTCCATCGTAGTTTATTTTTTAGCATTTGCGGAGTCACCTAGTGCAG” belongs 8590 fluorescence intensity (a.u.); to “GCCCGCACGTCTTCCGCGGCCACGCCACCGCCGATCCCCACGGAGTCACCTAGTGCAG”, 9520 fluorescence intensity (a.u.); to “GTAGAATAGTGTGGGTTTCTGTATCTAACGTTTGACTGTCCGGAGTCACCTAGTGCAG”, 8790 fluorescence intensity (a.u.). For “AGTTCGGAAGCCCTCGCCGCTATCGCCGCGCGCTCAGCGCCGGAGTCACCTAGTGCAG”, the binding signal is 8220 fluorescence intensity (a.u.). In the case of “ATACATCTTTGACCTTATTTTTCTATTATAATATATATAACGGAGTCACCTAGTGCAG”, the binding signal is 9550 fluorescence intensity (a.u.). The result for “CGCAATCCACTTTCTCTCGCCAAGTCGTCGTCCATCCGATCGGAGTCACCTAGTGCAG” reads 9020 fluorescence intensity (a.u.); that for “ACTCTTGAACCCACTTAGAAACCATATGGCTAAATATAACCGGAGTCACCTAGTGCAG”, 8110 fluorescence intensity (a.u.); that for “ATTTGCGCACCCTCTCGTGCCACTACCGTCAGTTGACCGTCGGAGTCACCTAGTGCAG”, 9460 fluorescence intensity (a.u.). To “CATCCACGGCCGCCTCGCGTTCGTCGACCGCCTCGCCGTCCGGAGTCACCTAGTGCAG” belongs 9630 fluorescence intensity (a.u.). Regarding “CTAATCTTGATTATTTCCATGTACTGTAGTATTGTACTGACGGAGTCACCTAGTGCAG”, the binding signal was 8490 fluorescence intensity (a.u.).

In the case of “CGATCACCTGCACACACATGAACCAAACAACCGTTGTCTTCGGAGTCACCTAGTGCAG”, the binding signal was 9470 fluorescence intensity (a.u.). Turning to “TTATTTTCCCGGGAACCCACATGTCATCGTAGGAGCTTACCGGAGTCACCTAGTGCAG”, the binding signal was 9600 fluorescence intensity (a.u.). The result for “ATATCGATCTCTCTTAATTAATTTCCCATCCAATCCAGTGCGGAGTCACCTAGTGCAG” reads 8240 fluorescence intensity (a.u.). In the case of “CTGCTGTTTTTCTTTCATCTTCTTTGTGTTCTAGTGTTAGCGGAGTCACCTAGTGCAG”, the binding signal is 11500 fluorescence intensity (a.u.). To “ACTCTTCCCGACGCCCATCTCGCGAACCCGAAATCGCCCACGGAGTCACCTAGTGCAG” belongs 8650 fluorescence intensity (a.u.); to “GTCGTCGTCGCGTTTCCTTCTCCTTCCGGCTTCCTCGGTTCGGAGTCACCTAGTGCAG”, 10700 fluorescence intensity (a.u.). With “TGTCCATACTCCATCGTCCTTGCTTGGCCGTTTGCCGGTGCGGAGTCACCTAGTGCAG”, the binding signal is 8780 fluorescence intensity (a.u.). To “GCGCCCACGAATATTACGCATATGCAAGTGGACTTTCAACCGGAGTCACCTAGTGCAG” belongs 8500 fluorescence intensity (a.u.); to “CACTCTGCCGTCGTCGCATCCGTCGTCTCGCCGCCACCGACGGAGTCACCTAGTGCAG”, 8190 fluorescence intensity (a.u.); to “ATATGGCAGCTACCTCACACCACTCTTCTCATCTTCCTCGCGGAGTCACCTAGTGCAG”, 12800 fluorescence intensity (a.u.).

Take “TTGGGGAGGATTTTTTCTTTTCATTTCATAATTAATTTCCCGGAGTCACCTAGTGCAG”: the binding signal is 11400 fluorescence intensity (a.u.). The result for “AACGCACTGCTCGCCATTGGCTCCATCCTTGACTCTGGCTCGGAGTCACCTAGTGCAG” reads 8040 fluorescence intensity (a.u.); that for “TCCACTCGTCCACACATAACGCGGTTTCCTAGTTGACTGACGGAGTCACCTAGTGCAG”, 9040 fluorescence intensity (a.u.); that for “ATTCCACTTGCTTATGAAACCACTACAGTATTTGCAAATTCGGAGTCACCTAGTGCAG”, 8910 fluorescence intensity (a.u.).
